According to PubChem BioAssay AID504444 (National Center for Advancing Translational Sciences (NCATS), 2011):
In all, about 360,000 compounds went through this assay and about 7,500 (2.1%) were called active. This list was built around the results that the source calls inconclusive (neither active nor inactive); the mix of calls is not that of the screen. Calls follow the shape of the dose curve; as a rule, active = well fitted inhibition curve with a large enough effect; inconclusive = small, poorly fitted or top-dose-only effect, or effect the other way; inactive = flat fitted curve, though single readings scatter. A potency beside an inconclusive call is a rough fit, not a confirmed value.

assay: Nrf2 qHTS screen for inhibitors; conditions: A549 ARE-Fluc reporter, luciferase luminescence, 18-24 h; activity change, negative = inhibition: at 46 µM (top of the series); also: nearly all actives have a fitted effect of over 60% in size
Procedure, shortened: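 Nrf2 activity is the BugLite luminescence, read 15 min after reagent at room temperature, following CellTiter-Fluor cytotoxicity readout (30 min, 37C). Compound titrations were applied for 18-24 h to 5000 A549 ARE_Fluc cells/well in 5% FBS OPTI-MEM.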
% is scaled to controls: 0 for no effect and ±100 for the full control effect; potency is read from the fitted curve at half-maximal effect.

Structure (SMILES) | Potency | activity change, negative = inhibition
CCC1CCCCN1C(=O)CSc1nnc(-c2ccco2)o1 (stereo not given) | inconclusive: 2.59 µM [activator, full curve, poor fit] | –
Cc1ccc(Oc2ccc(S(=O)(=O)Nc3ccc(C(=O)O)cc3)cc2)cc1 | inconclusive: 20.6 µM [falling, partial curve, poor fit] | –
CC(=O)N1CCN(c2nc(C)nc3sc4c(c23)CCC(C)C4)CC1 (stereo not given) | inconclusive: 1.3 µM [falling, partial curve, poor fit] | –
O=C(CN1C(=O)NC2(CCCCC2)C1=O)Nc1ccc2c(c1)CCC2 | inconclusive: 14.6 µM [falling, partial curve, poor fit] | –
Cn1c(=O)oc2cc(S(=O)(=O)N3CCCC(C(=O)NCCc4ccccc4)C3)ccc21 (stereo not given) | – | inactive: -17.5%
COCCN(C(=S)Nc1cccc(Cl)c1C)C(C)c1ccco1 (stereo not given) | inconclusive: 29.1 µM [falling, single point] | –
COc1ccc(NC(=O)Cn2c(=O)c(C)nc3ccccc32)cc1Cl | inconclusive: 20.6 µM [falling, single point] | –
Cc1ccc(S(=O)(=O)N(Cc2ccccc2)C(C)C)cc1 | inconclusive: 6.51 µM [falling, single point] | –
COc1cccc(Cn2c(NCc3cccnc3)nc3c2c(=O)n(C)c(=O)n3C)c1 | inconclusive: 1.46 µM [falling, partial curve, poor fit] | –
O=C(c1cn(-c2ccccc2)nc1-c1ccc(F)cc1)N1CCOCC1 | inconclusive: 29.1 µM [falling, single point] | –
C(=NN1CCCCCC1)c1ccc2ccccc2n1 | active: 18.4 µM | –
O=C(CNC(=S)NC(=O)c1ccc(Br)o1)c1ccccc1 | inconclusive: 20.6 µM [activator, single point] | –
CC(C(=O)NCc1ccc(F)cc1)c1ccc([N+](=O)[O-])cc1 (stereo not given) | inconclusive: 23.1 µM [falling, single point] | –
O=C(O)c1ccc(N/N=C/c2ccc3ncccc3c2)cc1 | inconclusive: 14.6 µM [falling, partial curve, poor fit] | –
O=[N+]([O-])c1ccc(O)c(Nc2ncnc3ccc(Br)cc23)c1 | inconclusive: 16.4 µM [activator, single point] | –
CCOc1ccc(NS(=O)(=O)c2cccc(C(=O)N3CCN(C/C=C/c4ccccc4)CC3)c2)cc1 | inconclusive: 23.1 µM [falling, single point] | –
Nc1ccccc1OCCOCCOc1ccccc1N | inconclusive: 6.51 µM [falling, single point] | –
CCc1cc(=O)oc2c3c(cc(OCC(=O)NCc4cccnc4)c12)OC(C)(C)CC3 | – | inactive: -21%
Cc1cc(N2CCN(C)CC2)nc2ccc(NC(=S)NCCCN3CCc4ccccc4C3)cc12 | – | inactive: -0.693%
CC(=O)NC(CC(=O)OCC(=O)N1CCN(S(=O)(=O)c2ccc(C)cc2C)CC1)c1ccccc1 (stereo not given) | active: 20.6 µM | –
O=C(NCc1ccccc1)Nc1cccn(Cc2ccc(F)cc2)c1=O | inconclusive: 29.1 µM [falling, single point] | –
N#Cc1ccc(OCc2nnc(SCC(=O)N3CCCc4ccccc43)n2-c2ccccc2)cc1 | – | inactive: -11.3%

Structure (SMILES) | Potency | activity change, negative = inhibition
CCC1(C)Cc2c(sc3nn[nH]c(=O)c23)CO1 (stereo not given) | inconclusive: 4.11 µM [falling, full curve] | –
Cc1cccc(NC(=O)COc2ccc(-c3nn(C)c(=O)c4ccccc34)cc2)c1 | active: 23.1 µM | –
O=[N+]([O-])c1ccc(N=Nc2ccc(O)cc2O)cc1 | inconclusive: 20.6 µM [falling, single point] | –
COc1ccccc1N/C(N)=N/c1nc(CSc2ccc(C)cc2)cc(=O)[nH]1 | active: 20.6 µM | –
Cc1cc2cc(C)c3nnc(SCC(=O)NCc4ccco4)n3c2cc1C | inconclusive: 20.6 µM [falling, partial curve, poor fit] | –
CCOc1ccc(NC(=O)CSc2nnc(-c3ccc(OCC)cc3)o2)cc1 | – | inactive: 1.16%
Cn1ccc(=NC=C(C#N)C#N)c2ccccc21 | inconclusive: 3.26 µM [activator, partial curve, poor fit] | –
CCCCCCCC(=O)N/N=C/c1ccc(Br)cc1 | inconclusive: 25.9 µM [falling, partial curve, poor fit] | –
CCOC(=O)c1cn(C2CC2)c2c(F)c(F)c(F)cc2c1=O | inconclusive: 6.51 µM [falling, single point] | –
CCCNC(=O)NCCC12CC3CC(CC(C3)C1)C2 | inconclusive: 29.1 µM [activator, single point] | –
CCS(=O)(=O)c1ccc(O)c(NC(=O)Nc2ccc(C(C)(C)C)cc2)c1 | – | inactive: -0.526%
CCc1nc2sc(C(=O)O)c(N)c2c2c1CCCC2 | inconclusive: 32.6 µM [falling, single point] | –
CC(Oc1ccccc1)c1ccnc(N)n1 (stereo not given) | inconclusive: 29.1 µM [activator, single point] | –
N#CCSc1nnc(-c2ccc(S(=O)(=O)N3CCOCC3)cc2)n1CC1CCCO1 (stereo not given) | inconclusive: 18.4 µM [activator, single point] | –
Cc1ccc2c(C)c(C(=O)N(C)C(C)c3ccon3)oc2c1C (stereo not given) | inconclusive: 7.31 µM [activator, partial curve] | –
CN(c1ccccc1C(=O)NCc1ccco1)S(C)(=O)=O | – | inactive: 4.86%
Cc1csc(Nc2nc(N)c(C(=O)Nc3cc(Cl)ccc3F)o2)n1 | inconclusive: 29.1 µM [falling, single point] | –
CC(=O)c1cccc(NC(=O)CCc2c(C)nc3c(c(C)nn3-c3ccccc3)c2C)c1 | inconclusive: 25.9 µM [falling, single point] | –
CC(=O)/C(C#N)=C1\NC(=O)C(Cc2ccc(C)c(Cl)c2)S1 (stereo not given) | inconclusive: 3.66 µM [activator, full curve] | –
COc1ccc(OCc2ccc(/C=N\NC(=O)c3sccc3C)o2)cc1 | inconclusive: 1.84 µM [activator, partial curve] | –
S=C(c1ccc(OCc2ccccc2)cc1)N1CCCC1 | inconclusive: 6.51 µM [activator, full curve, poor fit] | –
Cc1noc(C)c1COC(=O)c1ccc(S(=O)(=O)N2CCCCC2)cc1 | inconclusive: 1.03 µM [activator, full curve, poor fit] | –

Structure (SMILES) | Potency | activity change, negative = inhibition
CC(OC(=O)c1ccccn1)C(=O)Nc1nc(-c2ccc(F)c(F)c2)cs1 (stereo not given) | inconclusive: 18.4 µM [activator, single point] | –
CC(=O)Oc1cccc(N2C(=O)c3cccc4c([N+](=O)[O-])ccc(c34)C2=O)c1 | inconclusive: 13 µM [falling, partial curve, poor fit] | –
O=C(Nc1ccc(N2CCOCC2)c(S(=O)(=O)Nc2ccccc2Cl)c1)c1ccc(F)cc1 | inconclusive: 25.9 µM [falling, single point] | –
O=C1NC(=O)c2cc(NC(=O)C3CCCCC3)ccc21 | – | inactive: 0.184%
CC(C)=CCOc1ccc([C@@H]2COc3c(ccc4c3C=CC(C)(C)O4)C2)c(O)c1 | inconclusive: 23.1 µM [falling, single point] | –
O=C(C[C@H]1C[C@H](C(=O)N2CCCCC2)[C@@]2(CCc3ccccc3)c3[nH]c4cc(-c5ccco5)ccc4c3CCN2C1=O)NCCC1=CCCCC1 | – | inactive: -11.6%
O=[N+]([O-])c1cc(-c2ccc(/C=N/n3cnnc3)o2)ccc1Cl | inconclusive: 25.9 µM [falling, single point] | –
NC(=O)c1ccccc1NC(=O)CN1CCN(Cc2ccc(Cl)cc2Cl)CC1 | inconclusive: 23.1 µM [falling, single point] | –
Cc1occc1C(=O)N/N=C/c1ccc(Br)s1 | inconclusive: 14.6 µM [activator, partial curve] | –
COc1cccc(Cn2c(=O)n(CCc3ccccc3)c(=O)c3c2c2cc(OC)ccc2n3C)c1 | – | inactive: 26%
CN1C(=O)S/C(=C/c2ccccc2OCc2ccc(C(=O)O)cc2)C1=O | inconclusive: 0.0206 µM [falling, full curve] | –
Cc1ccc(-c2nn(-c3cccc(F)c3)cc2CN2CCN(c3ccccn3)CC2)o1 | inconclusive: 20.6 µM [falling, partial curve, poor fit] | –
COc1ccc(CSC2=CS(=O)(=O)c3ccccc3N2)cc1 | inconclusive: 23.1 µM [falling, partial curve, poor fit] | –
C=CCOc1ccc(C2C(C#N)=C(N)N(Nc3ccccc3)C3=C2C(=O)CCC3)cc1OC (stereo not given) | inconclusive: 29.1 µM [falling, single point] | –
O=C(COC(=O)CNC(=O)c1ccccc1)Nc1ccc(S(=O)(=O)N2CCCC2)cc1 | inconclusive: 6.51 µM [activator, single point] | –
O=c1[nH]c(CN2CCN(c3ccccc3O)CC2)nc2scc(-c3ccccc3Cl)c12 | – | inactive: -20.4%
Cc1ccc2cc(CCNC(=O)C(C)(C)C)c(=O)[nH]c2c1 | inconclusive: 0.731 µM [falling, full curve] | –
COc1ccccc1NNC(=O)c1cc(C(C)(C)C)nn1Cc1ccccc1 | inconclusive: 29.1 µM [activator, single point] | –
Cc1cccc(NC(=O)CSc2nc3ccccc3nc2N2CCCCC2)c1C | – | inactive: 2.75%
C/C(=N/NC(=O)C1CCCN1C(=O)c1ccc([N+](=O)[O-])cc1)c1ccc(Br)cc1 (stereo not given) | inconclusive: 13 µM [activator, partial curve, poor fit] | –
CCCCOc1ccccc1-c1ccccc1CN1[C@@H](C(C)C)COCCS1(=O)=O | inconclusive: 25.9 µM [falling, single point] | –

Part of the list above, as tab-separated lines.
Structure (SMILES)	Potency	activity change, negative = inhibition
CC(=O)Oc1cccc(N2C(=O)c3cccc4c([N+](=O)[O-])ccc(c34)C2=O)c1	inconclusive: 13 µM [falling, partial curve, poor fit]	–
O=C(Nc1ccc(N2CCOCC2)c(S(=O)(=O)Nc2ccccc2Cl)c1)c1ccc(F)cc1	inconclusive: 25.9 µM [falling, single point]	–
O=C1NC(=O)c2cc(NC(=O)C3CCCCC3)ccc21	–	inactive: 0.184%
CC(C)=CCOc1ccc([C@@H]2COc3c(ccc4c3C=CC(C)(C)O4)C2)c(O)c1	inconclusive: 23.1 µM [falling, single point]	–
O=C(C[C@H]1C[C@H](C(=O)N2CCCCC2)[C@@]2(CCc3ccccc3)c3[nH]c4cc(-c5ccco5)ccc4c3CCN2C1=O)NCCC1=CCCCC1	–	inactive: -11.6%
